Measurements reported in US20020102248A1.
No constants are given. Whether binding was seen depends on the method and setting. Binding seen in cells or lysates may run through a third protein. Some results given as binding are weak or reduced against the parent protein; the word gives no strength.

Protein sequences, listed by entry. Tags and fused reporters are not part of them. Lines headed by an entry give the natural chain unless they say otherwise; changes in a name come on top. Chains listed by the source or under a name are the forms on record and can include a tag or linker.
UniProt P03372: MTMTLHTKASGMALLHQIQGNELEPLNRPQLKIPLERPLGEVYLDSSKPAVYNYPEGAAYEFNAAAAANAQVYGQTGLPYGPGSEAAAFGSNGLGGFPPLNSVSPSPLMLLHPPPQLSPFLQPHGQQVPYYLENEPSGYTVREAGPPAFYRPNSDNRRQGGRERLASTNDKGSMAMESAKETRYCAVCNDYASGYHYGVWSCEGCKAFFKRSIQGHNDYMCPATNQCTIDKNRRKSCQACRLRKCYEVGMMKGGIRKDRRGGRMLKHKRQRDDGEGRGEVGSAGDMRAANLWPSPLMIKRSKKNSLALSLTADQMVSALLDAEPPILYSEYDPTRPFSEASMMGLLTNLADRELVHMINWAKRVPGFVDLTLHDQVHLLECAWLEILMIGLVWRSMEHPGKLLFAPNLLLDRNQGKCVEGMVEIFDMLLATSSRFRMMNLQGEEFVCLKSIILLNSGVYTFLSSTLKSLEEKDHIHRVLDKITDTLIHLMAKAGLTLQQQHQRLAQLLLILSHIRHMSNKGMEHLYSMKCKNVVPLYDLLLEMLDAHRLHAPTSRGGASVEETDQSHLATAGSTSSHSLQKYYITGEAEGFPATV
UniProt O96017: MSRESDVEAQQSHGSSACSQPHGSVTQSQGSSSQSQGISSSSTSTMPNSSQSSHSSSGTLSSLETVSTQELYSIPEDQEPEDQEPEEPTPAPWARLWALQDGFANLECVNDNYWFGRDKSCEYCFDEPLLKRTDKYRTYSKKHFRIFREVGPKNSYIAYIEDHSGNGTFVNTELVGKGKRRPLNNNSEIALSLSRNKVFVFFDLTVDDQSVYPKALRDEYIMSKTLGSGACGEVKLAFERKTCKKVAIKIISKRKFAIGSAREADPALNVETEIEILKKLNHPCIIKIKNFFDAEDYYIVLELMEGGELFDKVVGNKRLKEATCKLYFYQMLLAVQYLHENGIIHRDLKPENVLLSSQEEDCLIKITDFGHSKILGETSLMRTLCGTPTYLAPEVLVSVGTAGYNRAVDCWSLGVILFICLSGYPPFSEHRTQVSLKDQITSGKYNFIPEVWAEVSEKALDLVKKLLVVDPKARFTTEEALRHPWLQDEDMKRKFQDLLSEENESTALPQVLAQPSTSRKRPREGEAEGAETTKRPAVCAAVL
kinase-dead hCds1 mutant fused to V5 (O96017, form named): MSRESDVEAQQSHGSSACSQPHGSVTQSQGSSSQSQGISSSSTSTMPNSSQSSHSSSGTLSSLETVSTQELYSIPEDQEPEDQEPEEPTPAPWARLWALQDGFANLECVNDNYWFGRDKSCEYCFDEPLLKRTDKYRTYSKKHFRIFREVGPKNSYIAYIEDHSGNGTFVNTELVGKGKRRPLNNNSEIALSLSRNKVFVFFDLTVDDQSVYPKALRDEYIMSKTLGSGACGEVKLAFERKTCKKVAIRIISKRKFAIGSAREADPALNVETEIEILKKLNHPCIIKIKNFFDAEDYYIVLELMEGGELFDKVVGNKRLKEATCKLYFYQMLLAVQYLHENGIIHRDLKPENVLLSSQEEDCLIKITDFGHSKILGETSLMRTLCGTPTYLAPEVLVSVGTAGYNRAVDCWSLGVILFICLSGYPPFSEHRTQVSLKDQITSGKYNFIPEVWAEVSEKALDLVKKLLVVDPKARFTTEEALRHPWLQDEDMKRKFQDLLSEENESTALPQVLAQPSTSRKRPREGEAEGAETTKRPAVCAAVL
UniProt Q92831: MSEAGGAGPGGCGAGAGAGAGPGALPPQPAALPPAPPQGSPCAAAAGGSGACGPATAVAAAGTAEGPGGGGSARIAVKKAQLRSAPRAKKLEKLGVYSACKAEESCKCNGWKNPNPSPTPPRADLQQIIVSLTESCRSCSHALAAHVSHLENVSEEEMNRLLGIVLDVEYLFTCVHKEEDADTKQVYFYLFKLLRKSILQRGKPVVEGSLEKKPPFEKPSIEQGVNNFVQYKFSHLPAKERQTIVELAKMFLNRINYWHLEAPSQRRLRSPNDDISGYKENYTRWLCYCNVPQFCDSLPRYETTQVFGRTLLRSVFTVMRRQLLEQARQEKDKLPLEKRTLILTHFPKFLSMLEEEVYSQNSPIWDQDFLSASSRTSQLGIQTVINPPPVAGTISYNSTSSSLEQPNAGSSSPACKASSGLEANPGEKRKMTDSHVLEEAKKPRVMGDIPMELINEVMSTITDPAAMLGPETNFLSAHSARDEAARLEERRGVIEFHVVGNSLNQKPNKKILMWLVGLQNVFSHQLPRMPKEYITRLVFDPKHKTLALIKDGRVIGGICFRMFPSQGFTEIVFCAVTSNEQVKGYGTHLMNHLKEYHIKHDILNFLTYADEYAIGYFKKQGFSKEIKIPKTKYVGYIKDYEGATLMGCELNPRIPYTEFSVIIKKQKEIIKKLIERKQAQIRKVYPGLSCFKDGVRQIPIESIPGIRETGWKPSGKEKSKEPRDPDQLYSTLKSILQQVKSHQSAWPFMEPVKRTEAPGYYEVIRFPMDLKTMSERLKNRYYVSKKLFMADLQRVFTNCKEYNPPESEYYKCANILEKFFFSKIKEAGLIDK

Legend:
HA-BRCA1 [S988A] (human) [1] = molecular target: HA-BRCA1 [S988A] (human) (UniProt P38398); assay: co-immunoprecipitation with anti-HA from irradiated (10 Gy) MCF-7 cells
HA-BRCA1 [S988A] (human) [2] = molecular target: HA-BRCA1 [S988A] (human) (UniProt P38398); assay: co-immunoprecipitation with anti-HA from unirradiated MCF-7 cells
ERa [3] = molecular target: ERa (UniProt P03372); assay: co-immunoprecipitation from unirradiated COS-7 cells also expressing wild type HA-BRCA1
ERa [4] = molecular target: ERa (UniProt P03372); assay: co-immunoprecipitation of ERa and FLAG-PCAF from COS-7 cells also expressing HA-BRCA1 S988E
ERa [5] = molecular target: ERa (UniProt P03372); assay: co-immunoprecipitation of ERa and FLAG-PCAF from COS-7 cells also expressing HA-BRCA1 [S988A], irradiated or not
ERa [6] = molecular target: ERa (UniProt P03372); assay: co-immunoprecipitation from irradiated (15 Gy) COS-7 cells also expressing wild type HA-BRCA1
[7] = molecular target: BRCA1 fused to the epitope tag myc (human) (UniProt P38398); assay: co-immunoprecipitation from unirradiated MCF-7 cells
[8] = molecular target: BRCA1 fused to the epitope tag myc (human) (UniProt P38398); assay: co-immunoprecipitation from irradiated MCF-7 cells
HA-BRCA1 [S988A] (human) [9] = molecular target: HA-BRCA1 [S988A] (human) (UniProt P38398); assay: co-immunoprecipitation from unirradiated and irradiated MCF-7 cells
HA-BRCA1 [S988E] (human) = HA-BRCA1 [S988E] (human) (UniProt P38398); assay: as above

Measured: binding

hCds1 fused to the epitope tag V5 (from UniProt O96017 1-543) (enzyme)
binds: HA-BRCA1 [S988A] (human) [1] | HA-BRCA1 [S988A] (human) [2]

PCAF linked to the epitope tag FLAG (from UniProt Q92831 1-832) (enzyme)
binds: ERa [3] | ERa [4] | ERa [5] | ERa [6]

kinase-dead hCds1 mutant fused to V5 (from UniProt O96017 1-543) (enzyme)
binds: [7] | [8] | HA-BRCA1 [S988A] (human) [9] | HA-BRCA1 [S988E] (human)
